Test results published in patent US20250270306A1 (OSPEDALE SAN RAFFAELE S R L, published 2025).
These are yes or no findings as the source states them, for the method shown. Some results given as binding are weak or reduced against the parent protein; the word gives no strength. Each block holds one binder with its values, some of them ahead of it.

The chains behind the UniProt entries cited, without tags or fusion partners. Residues count along the entry.
UniProt P47878, residues 28-292: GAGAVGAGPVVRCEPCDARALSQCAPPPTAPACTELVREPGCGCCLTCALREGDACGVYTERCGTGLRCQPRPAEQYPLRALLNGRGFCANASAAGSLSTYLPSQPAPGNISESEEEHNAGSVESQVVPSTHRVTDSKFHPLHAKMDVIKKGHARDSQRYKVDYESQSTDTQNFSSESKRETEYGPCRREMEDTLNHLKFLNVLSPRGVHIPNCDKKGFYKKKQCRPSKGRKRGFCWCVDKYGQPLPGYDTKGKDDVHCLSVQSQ

Experiments:
mouse IGFBP3 [1] = biological target: T1, mouse IGFBP3 (mouse, UniProt P47878 28-292, limits assumed); assay: BLI (Octet/BLItz), antibody captured via Fc on AHC biosensor; BLI, KD on mIGFBP-3 above the limit of 10^-6 M
T1 construct: Bought protein; also called mIGFBP-3; murine IGFBP3

mouse IGFBP3 [2] = biological target: T1, mouse IGFBP3; assay: BLI (Octet/BLItz)

binding (mouse IGFBP3 [1]): no binding (tested: 10^-6 M)
B1: YU139-H03 (Fc fusion)
VH: QVQLVQSGAEVKKPGASVKVSCKASGYTFTSYGISWVRQAPGQGLEWMGWISAYNGNTNYAQKLQGRVTMTTDTSTSTAYMELRSLRSDDTAVYYCARVKWELGWAFDIWGQGTMVTVSS
VL: QAVLTQPPSVSGAPGQRVTISCTGSSSNIGAGYDVHWYQQLPGTAPKLLIYGNSNRPSGVPDRFSGSKSGTSAPLAITGLQAEDEADYYCQSYDSSLSTVFGGGTKLTVL
notes: The format used in the Octet assay is not restated (captured via Fc)

binding (mouse IGFBP3 [2]): binds
B2: YU139-C01 (Fc fusion)
VH: QVQLVQSGAEVKKPGASVKVSCKASGYTFTSYGISWVRQAPGQGLEWMGWINTYNGNTNYAQKLQGRVTMTTDTSTTTAYMELRSLRSDDTAVYYCARDIGYSGSYYSPYYYYGMDVWGQGTTVTVSS
VL: SSELTQDPAVSVALGQTVRITCQGDGLRNYFASWYQQKPGQAPVLVIYGKNNRPSGIPDRFSGSSSGNTASLRIAGAQAEDEADYYCNSRDGSGKHLVFGGGTKLTV
notes: The format used in the Octet assay is not restated (captured via Fc); also called Yu139-CO1

binding (mouse IGFBP3 [2]): binds
B3: YU139-A03 (Fc fusion)
VH: QVQLVQSGGGVVQPGRSLRLSCAASGFTFSSYGIHWVRQAPGKGLEWVAIVSYDGRHKYYADSVKGRFTISRDDSKNTIYLQMDSLRAEDTAVYYCAKDSGNSGLEGIHDYWGQGTLVTVSS
VL: DVVMTQSPSSVSASVGDRVTITCRASQGISSWLAWYQQKPGKAPKLLIYAASSLQSGVPSRFSGSGSGTDFTLTISSLQPEDFGTYYCQQANSFPLTFGGGTKVEIK
notes: as for B1

binding (mouse IGFBP3 [2]): binds
B4: YU139-G03 (Fc fusion)
VH: QVQLQQSGAEVKKPGSSVKVSCKASGGIFSTYVTSWVRQAPGQGLEWMGGIIPMFDTTEYAQKLEGRVTITVDESTNTAYMELSSLRFEDTAVYYCARAGGLSHFDYWGQGTLVTVSS
VL: EIVLTQSPLSLPVTPGEPASISCRSSQSLLHSNGNNYLNWYLQKPGQSPQLLIYLSSRRASGVPDRFSGSGSGTDFTLKISRVEAEDVGVYYCMQGLQTPWTFGQGTKVETK
